In this data set the test system is BAF complex subunits and histone proteins. In words: Mass spectrometry proteomics of purified HA-SS18 WT and HA-SS18-SSX1 complexes (Tables 5A-5E). The arrangement: species or system human. Conditions: for Total / Unique: HA-SS18SSX1_CHR_peptides; for Total: total peptides of the identified protein; for Unique: unique peptides of the identified protein.
The mark [1] stands for this setting: HA-SS18SSX1 purification, NE (soluble nuclear extract) fraction, HEK-293T, peptides per identified protein.
[2] abbreviates: HA-SS18WT_NE_peptides: HA-SS18 WT complexes purified from nuclear extract (NE), HEK-293T, label = protein identified (Gene Symbol).
Where [3] appears, read: HA-SS18WT_CHR_peptides: protein identified in HA-SS18 WT BAF complex purification from nuclease-treated solubilized chromatin (CHR), HEK-293T.

B1: SMC6 (protein, UniProt Q96SB8 1-1091, looked up)
Structural maintenance of …: MAKRKEENFSSPKNAKRPRQEELEDFDKDGDEDECKGTTLTAAEVGIIESIHLKNFMCHSMLGPFKFGSNVNFVVGNNGSGKSAVLTALIVGLGGRAVATNRGSSLKGFVKDGQNSADISITLRNRGDDAFKASVYGNSILIQQHISIDGSRSYKLKSATGSVVSTRKEELIAILDHFNIQVDNPVSVLTQEMSKQFLQSKNEGDKYKFFMKATQLEQMKEDYSYIMETKERTKEQIHQGEERLTELKRQCVEKEERFQSIAGLSTMKTNLESLKHEMAWAVVNEIEKQLNAIRDNIKIGEDRAARLDRKMEEQQVRLNEAEQKYKDIQDKLEKISEETNARAPECMALKADVVAKKRAYNEAEVLYNRSLNEYKALKKDDEQLCKRIEELKKSTDQSLEPERLERQKKISWLKERVKAFQNQENSVNQEIEQFQQAIEKDKEEHGKIKREELDVKHALSYNQRQLKELKDSKTDRLKRFGPNVPALLEAIDDAYRQGHFTYKPVGPLGACIHLRDPELALAIESCLKGLLQAYCCHNHADERVLQALMKRFYLPGTSRPPIIVSEFRNEIYDVRHRAAYHPDFPTVLTALEIDNAVVANSLIDMRGIETVLLIKNNSVARAVMQSQKPPKNCREAFTADGDQVFAGRYYSSENTRPKFLSRDVDSEISDLENEVENKTAQILNLQQHLSALEKDIKHNEELLKRCQLHYKELKMKIRKNISEIRELENIEEHQSVDIATLEDEAQENKSKMKMVEEHMEQQKENMEHLKSLKIEAENKYDAIKFKINQLSELADPLKDELNLADSEVDNQKRGKRHYEEKQKEHLDTLNKKKRELDMKEKELEEKMSQARQICPERIEVEKSASILDKEINRLRQKIQAEHASHGDREEIMRQYQEARETYLDLDSKVRTLKKFIKLLGEIMEHRFKTYQQFRRCLTLRCKLYFDNLLSQRAYCGKMNFDHKNETLSISVQPGEGNKAAFNDMRALSGGERSFSTVCFILSLWSIAESPFRCLDEFDVYMDMVNRRIAMDLILKMADSQRFRQFILLTPQSMSSLPSSKLIRILRMSDPERGQTTLPFRPVTQEEDDDQR
The molecule B1 registered a Total of 2 and a Unique of 2.

B2: SF1 (protein, UniProt Q15637 2-639, looked up)
Splicing factor 1: ATGANATPLDFPSKKRKRSRWNQDTMEQKTVIPGMPTVIPPGLTREQERAYIVQLQIEDLTRKLRTGDLGIPPNPEDRSPSPEPIYNSEGKRLNTREFRTRKKLEEERHNLITEMVALNPDFKPPADYKPPATRVSDKVMIPQDEYPEINFVGLLIGPRGNTLKNIEKECNAKIMIRGKGSVKEGKVGRKDGQMLPGEDEPLHALVTANTMENVKKAVEQIRNILKQGIETPEDQNDLRKMQLRELARLNGTLREDDNRILRPWQSSETRSITNTTVCTKCGGAGHIASDCKFQRPGDPQSAQDKARMDKEYLSLMAELGEAPVPASVGSTSGPATTPLASAPRPAAPANNPPPPSLMSTTQSRPPWMNSGPSESRPYHGMHGGGPGGPGGGPHSFPHPLPSLTGGHGGHPMQHNPNGPPPPWMQPPPPPMNQGPHPPGHHGPPPMDQYLGSTPVGSGVYRLHQGKGMMPPPPMGMMPPPPPPPSGQPPPPPSGPLPPWQQQQQQPPPPPPPSSSMASSTPLPWQQNTTTTTTSAGTGSIPPWQQQQAAAAASPGAPQMQGNPTMVPLPPGVQPPLPPGAPPPPPPPPPGSAGMMYAPPPPPPPPMDPSNFVTMMGMGVAGMPPFGMPPAPPPPPPQN
The molecule B2 had a Total of 2 and a Unique of 2. Under setting [1], the “Total (total peptides)” value is 8 and the “Unique (unique peptides)” value was 6. Moreover, under setting [2], the “Total (peptides)” value came to 5 and the “Unique (peptides)” value came to 4.

B3: TBP (protein, UniProt P20226 1-339, looked up)
TATA-box-binding protein: MDQNNSLPPYAQGLASPQGAMTPGIPIFSPMMPYGTGLTPQPIQNTNSLSILEEQQRQQQQQQQQQQQQQQQQQQQQQQQQQQQQQQQQQQQQQQAVAAAAVQQSTSQQATQGTSGQAPQLFHSQTLTTAPLPGTTPLYPSPMTPMTPITPATPASESSGIVPQLQNIVSTVNLGCKLDLKTIALRARNAEYNPKRFAAVIMRIREPRTTALIFSSGKMVCTGAKSEEQSRLAARKYARVVQKLGFPAKFLDFKIQNMVGSCDVKFPIRLEGLVLTHQQFSSYEPELFPGLIYRMIKPRIVLLIFVSGKVVLTGAKVRAEIYEAFENIYPILKGFRKTT
With B3, the Total came to 2 and the Unique was 2. Further, under setting [3], the “Total (total peptides)” value is 1 and the “Unique (unique peptides)” value worked out at 1.

The values are drawn from US20250283871A1, “COMPOSITIONS AND METHODS FOR MODULATING THE INTERACTION BETWEEN SS18-SSX FUSION ONCOPROTEIN AND NUCLEOSOMES” (Dana-Farber Cancer Institute, Inc., priority 2020, published 2025).
